From paper PMC12124388, “High-affinity PQQ import is widespread in Gram-negative bacteria” (Science Advances, 2025)
Results are given in words; binding and its absence hold for the method and conditions named.

Target: PqqU (TonB-dependent transporter, formerly YncD) from Escherichia coli (E. coli) (UniProt P76115)
Assay: cryo-EM structure; 43 μM PqqU (3.3 mg/ml) in an LMNG micelle, excess detergent removed, with 910 μM PQQ; single-particle reconstruction at 1.99 Å; both purified

B1: PqqU (TonB-dependent transporter, formerly YncD) from Escherichia coli (protein, UniProt P76115 24-700)
chain: ADEQTMIVSAAPQVVSELDTPAAVSVVDGEEMRLATPRINLSESLTGVPGLQVQNRQNYAQDLQLSIRGFGSRSTYGIRGIRLYVDGIPATMPDGQGQTSNIDLSSVQNVEVLRGPFSALYGNASGGVMNVTTQTGQQPPTIEASSYYGSFGSWRYGLKATGATGDGTQPGDVDYTVSTTRFTTHGYRDHSGAQKNLANAKLGVRIDEASKLSLIFNSVDIKADDPGGLTKAEWKANPQQAPRAEQYDTRKTIKQTQAGLRYERSLSSRDDMSVMMYAGERETTQYQSIPMAPQLNPSHAGGVITLQRHYQGIDSRWTHRGELGVPVTFTTGLNYENMSENRKGYNNFRLNSGMPEYGQKGELRRDERNLMWNIDPYLQTQWQLSEKLSLDAGVRYSSVWFDSNDHYVTPGNGDDSGDASYHKWLPAGSLKYAMTDAWNIYLAAGRGFETPTINELSYRADGQSGMNLGLKPSTNDTIEIGSKTRIGDGLLSLALFQTDTDDEIVVDSSSGGRTTYKNAGKTRRQGAELAWDQRFAGDFRVNASWTWLDATYRSNVCNEQDCNGNRMPGIARNMGFASIGYVPEDGWYAGTEARYMGDIMADDENTAKAPSYTLVGLFTGYKYNYHNLTVDLFGRVDNLFDKEYVGSVIVNESNGRYYEPSPGRNYGVGMNIAWRFE
binding: no binding (tested: 43 μM)
